Test results reported in article PMC8707672.
These are yes or no findings as the source states them, for the method shown. Binding seen in cells or lysates may run through a third protein. Some results given as binding are weak or reduced against the parent protein; the word gives no strength.

The chains behind the UniProt entries cited, without tags or fusion partners.
UniProt P11881: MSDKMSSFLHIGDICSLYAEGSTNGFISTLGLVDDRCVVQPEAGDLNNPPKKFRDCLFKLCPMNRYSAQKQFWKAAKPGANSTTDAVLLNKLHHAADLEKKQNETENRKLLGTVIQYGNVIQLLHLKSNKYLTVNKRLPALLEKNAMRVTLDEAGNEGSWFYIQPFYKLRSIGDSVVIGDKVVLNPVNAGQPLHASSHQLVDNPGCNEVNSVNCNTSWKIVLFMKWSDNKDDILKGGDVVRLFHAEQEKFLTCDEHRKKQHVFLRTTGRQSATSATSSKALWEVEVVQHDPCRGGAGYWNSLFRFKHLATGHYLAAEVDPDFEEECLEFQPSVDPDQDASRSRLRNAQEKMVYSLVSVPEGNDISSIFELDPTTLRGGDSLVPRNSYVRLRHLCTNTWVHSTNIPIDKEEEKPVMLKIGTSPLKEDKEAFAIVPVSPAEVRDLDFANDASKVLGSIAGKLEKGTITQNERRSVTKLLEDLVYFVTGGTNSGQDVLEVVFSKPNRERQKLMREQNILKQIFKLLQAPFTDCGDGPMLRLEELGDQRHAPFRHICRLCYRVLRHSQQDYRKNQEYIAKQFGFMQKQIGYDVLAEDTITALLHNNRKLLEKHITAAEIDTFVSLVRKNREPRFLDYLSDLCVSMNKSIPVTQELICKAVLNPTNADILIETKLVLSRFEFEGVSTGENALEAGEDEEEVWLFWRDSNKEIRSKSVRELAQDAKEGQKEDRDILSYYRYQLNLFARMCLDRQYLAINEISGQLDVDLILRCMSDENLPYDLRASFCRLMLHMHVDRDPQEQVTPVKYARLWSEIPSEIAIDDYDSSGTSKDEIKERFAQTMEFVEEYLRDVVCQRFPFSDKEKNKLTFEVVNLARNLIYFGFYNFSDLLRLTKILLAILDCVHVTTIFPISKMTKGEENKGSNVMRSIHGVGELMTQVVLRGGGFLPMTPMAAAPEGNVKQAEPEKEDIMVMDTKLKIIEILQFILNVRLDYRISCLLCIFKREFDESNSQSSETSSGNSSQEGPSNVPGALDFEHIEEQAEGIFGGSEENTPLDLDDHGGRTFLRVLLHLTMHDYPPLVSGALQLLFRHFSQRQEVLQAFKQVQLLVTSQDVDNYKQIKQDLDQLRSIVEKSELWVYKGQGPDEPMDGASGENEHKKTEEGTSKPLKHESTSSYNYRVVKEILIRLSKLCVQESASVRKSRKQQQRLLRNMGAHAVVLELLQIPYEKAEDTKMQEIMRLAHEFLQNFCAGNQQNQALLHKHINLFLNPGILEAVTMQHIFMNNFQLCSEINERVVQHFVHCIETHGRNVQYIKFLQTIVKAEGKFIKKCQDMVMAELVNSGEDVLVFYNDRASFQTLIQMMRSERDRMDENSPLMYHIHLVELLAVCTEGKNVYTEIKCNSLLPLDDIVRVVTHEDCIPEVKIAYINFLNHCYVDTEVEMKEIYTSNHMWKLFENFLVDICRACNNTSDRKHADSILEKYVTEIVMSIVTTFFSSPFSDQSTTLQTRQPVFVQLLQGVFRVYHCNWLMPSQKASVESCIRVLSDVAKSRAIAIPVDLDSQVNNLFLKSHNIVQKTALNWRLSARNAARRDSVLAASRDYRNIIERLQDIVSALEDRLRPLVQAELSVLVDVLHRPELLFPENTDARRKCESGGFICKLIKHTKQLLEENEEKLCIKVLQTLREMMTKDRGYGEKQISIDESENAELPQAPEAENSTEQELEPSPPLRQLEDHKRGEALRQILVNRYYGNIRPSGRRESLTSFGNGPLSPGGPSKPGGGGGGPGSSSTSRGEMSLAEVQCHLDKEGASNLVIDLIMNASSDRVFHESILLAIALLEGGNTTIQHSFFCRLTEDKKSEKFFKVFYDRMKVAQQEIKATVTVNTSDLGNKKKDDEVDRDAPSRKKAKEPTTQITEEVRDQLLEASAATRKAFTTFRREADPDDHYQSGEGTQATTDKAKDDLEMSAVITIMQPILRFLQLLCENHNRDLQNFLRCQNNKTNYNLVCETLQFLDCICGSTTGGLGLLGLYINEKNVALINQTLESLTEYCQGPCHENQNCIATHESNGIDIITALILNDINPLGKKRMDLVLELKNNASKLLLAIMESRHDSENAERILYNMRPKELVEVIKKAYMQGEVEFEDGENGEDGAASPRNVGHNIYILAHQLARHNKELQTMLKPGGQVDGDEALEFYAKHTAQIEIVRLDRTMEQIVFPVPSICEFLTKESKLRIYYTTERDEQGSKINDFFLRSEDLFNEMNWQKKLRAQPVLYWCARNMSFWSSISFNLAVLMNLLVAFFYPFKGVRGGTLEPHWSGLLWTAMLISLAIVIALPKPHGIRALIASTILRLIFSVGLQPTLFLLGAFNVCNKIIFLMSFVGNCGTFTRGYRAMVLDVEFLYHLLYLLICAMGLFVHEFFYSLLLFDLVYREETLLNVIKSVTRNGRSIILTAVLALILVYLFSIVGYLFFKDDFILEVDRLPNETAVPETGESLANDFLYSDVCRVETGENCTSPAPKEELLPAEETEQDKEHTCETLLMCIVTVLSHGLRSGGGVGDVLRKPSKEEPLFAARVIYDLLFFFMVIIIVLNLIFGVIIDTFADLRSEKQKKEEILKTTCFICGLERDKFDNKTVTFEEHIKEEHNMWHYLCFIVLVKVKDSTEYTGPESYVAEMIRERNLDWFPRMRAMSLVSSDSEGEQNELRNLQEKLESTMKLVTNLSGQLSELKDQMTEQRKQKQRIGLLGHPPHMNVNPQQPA
UniProt Q9Z329: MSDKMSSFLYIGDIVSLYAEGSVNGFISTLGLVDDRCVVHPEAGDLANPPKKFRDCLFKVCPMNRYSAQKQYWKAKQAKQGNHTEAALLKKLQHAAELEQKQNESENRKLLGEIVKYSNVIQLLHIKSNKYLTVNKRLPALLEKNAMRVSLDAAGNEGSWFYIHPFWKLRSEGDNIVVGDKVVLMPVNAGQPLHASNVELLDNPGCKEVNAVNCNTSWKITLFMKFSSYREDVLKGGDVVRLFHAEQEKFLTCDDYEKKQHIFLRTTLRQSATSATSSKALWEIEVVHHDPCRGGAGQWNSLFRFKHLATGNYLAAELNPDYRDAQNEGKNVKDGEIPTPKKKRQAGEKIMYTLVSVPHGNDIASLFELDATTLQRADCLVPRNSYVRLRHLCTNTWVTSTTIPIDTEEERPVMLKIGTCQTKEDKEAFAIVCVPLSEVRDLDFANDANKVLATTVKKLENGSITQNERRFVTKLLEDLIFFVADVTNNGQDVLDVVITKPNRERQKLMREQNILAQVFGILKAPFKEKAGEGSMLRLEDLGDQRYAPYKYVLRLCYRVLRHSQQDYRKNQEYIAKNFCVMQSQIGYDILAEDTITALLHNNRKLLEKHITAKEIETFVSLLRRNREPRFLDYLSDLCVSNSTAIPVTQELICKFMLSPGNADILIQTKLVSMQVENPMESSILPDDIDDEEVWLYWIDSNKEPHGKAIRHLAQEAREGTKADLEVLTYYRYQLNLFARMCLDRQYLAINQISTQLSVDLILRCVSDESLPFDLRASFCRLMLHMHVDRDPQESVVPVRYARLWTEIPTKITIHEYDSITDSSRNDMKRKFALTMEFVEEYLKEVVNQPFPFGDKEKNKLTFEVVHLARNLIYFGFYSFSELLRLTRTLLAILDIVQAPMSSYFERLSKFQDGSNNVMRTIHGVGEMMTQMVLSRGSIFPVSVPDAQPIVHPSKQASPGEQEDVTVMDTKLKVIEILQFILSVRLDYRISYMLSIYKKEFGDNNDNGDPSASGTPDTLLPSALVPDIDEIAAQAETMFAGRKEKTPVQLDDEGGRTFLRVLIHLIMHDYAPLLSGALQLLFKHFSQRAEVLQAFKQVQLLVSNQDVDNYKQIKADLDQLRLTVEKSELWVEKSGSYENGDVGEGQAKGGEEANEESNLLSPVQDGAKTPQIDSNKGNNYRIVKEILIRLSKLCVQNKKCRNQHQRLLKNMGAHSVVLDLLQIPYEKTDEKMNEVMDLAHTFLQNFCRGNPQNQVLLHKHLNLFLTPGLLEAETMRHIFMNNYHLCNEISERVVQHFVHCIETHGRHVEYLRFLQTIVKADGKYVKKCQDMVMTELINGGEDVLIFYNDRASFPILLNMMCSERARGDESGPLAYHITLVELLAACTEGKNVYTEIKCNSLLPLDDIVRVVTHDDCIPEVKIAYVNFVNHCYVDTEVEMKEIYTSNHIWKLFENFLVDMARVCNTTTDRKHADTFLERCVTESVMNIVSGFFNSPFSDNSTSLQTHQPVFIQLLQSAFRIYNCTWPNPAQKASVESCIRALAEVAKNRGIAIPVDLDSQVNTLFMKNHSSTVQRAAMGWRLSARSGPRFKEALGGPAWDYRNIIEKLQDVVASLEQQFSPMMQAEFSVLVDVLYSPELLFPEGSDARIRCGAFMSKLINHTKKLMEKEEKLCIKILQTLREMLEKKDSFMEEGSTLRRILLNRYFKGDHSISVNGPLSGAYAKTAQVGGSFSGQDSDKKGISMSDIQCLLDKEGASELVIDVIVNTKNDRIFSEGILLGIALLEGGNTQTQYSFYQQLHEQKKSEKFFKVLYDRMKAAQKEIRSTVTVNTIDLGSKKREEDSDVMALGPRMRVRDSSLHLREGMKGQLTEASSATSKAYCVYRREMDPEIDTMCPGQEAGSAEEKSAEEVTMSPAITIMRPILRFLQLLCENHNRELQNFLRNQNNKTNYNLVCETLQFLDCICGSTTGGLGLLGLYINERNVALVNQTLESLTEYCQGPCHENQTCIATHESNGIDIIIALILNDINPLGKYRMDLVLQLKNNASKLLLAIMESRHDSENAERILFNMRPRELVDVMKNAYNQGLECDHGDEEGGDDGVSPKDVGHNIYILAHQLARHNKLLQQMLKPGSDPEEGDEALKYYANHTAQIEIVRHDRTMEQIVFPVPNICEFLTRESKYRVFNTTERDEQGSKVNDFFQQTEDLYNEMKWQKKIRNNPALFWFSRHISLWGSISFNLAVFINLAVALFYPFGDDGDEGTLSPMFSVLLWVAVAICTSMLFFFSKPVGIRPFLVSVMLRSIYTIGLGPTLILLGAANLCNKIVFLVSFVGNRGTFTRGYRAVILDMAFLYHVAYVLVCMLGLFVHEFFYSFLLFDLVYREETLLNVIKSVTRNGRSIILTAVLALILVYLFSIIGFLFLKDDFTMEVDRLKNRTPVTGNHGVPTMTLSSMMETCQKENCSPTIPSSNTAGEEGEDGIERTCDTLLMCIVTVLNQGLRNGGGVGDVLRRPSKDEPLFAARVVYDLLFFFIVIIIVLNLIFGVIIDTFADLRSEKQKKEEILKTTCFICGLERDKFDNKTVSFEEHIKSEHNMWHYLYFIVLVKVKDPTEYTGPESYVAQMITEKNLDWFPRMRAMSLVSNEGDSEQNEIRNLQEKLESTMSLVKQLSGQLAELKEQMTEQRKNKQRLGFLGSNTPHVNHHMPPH

molecular target: T1, inositol 1,4,5-triphosphate receptor-associated 2 (IRAG2) (mouse (endogenous in pancreas)) (UniProt Q60664); test: co-IP; pancreas lysates of IRAG2-WT and IRAG2-KO mice; IRAG2 precipitated with 1 µg anti-IRAG2 (anti-mouse LRMP, C-terminal) antibody and Protein-A-Sepharose beads; buffer 50 mM Tris HCl, 15 mM EGTA, 100 mM NaCl, 0.1% Triton X-100, pH 7.5, 1 mM DTT; overnight at 4 °C; partners detected by Western blot
T1 sequence: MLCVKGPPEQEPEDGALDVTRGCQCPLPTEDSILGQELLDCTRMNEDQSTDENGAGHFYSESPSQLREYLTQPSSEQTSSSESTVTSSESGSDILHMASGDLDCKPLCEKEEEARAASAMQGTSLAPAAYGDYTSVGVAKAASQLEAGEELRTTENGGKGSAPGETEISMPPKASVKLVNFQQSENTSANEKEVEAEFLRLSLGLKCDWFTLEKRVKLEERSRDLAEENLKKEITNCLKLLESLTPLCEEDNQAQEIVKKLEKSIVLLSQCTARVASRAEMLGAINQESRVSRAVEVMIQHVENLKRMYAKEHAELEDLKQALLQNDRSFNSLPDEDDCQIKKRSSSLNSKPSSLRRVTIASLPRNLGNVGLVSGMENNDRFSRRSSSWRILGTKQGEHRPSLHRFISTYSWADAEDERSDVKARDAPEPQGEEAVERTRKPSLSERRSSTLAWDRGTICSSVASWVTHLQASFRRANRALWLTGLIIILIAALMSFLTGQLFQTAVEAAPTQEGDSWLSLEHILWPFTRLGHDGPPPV

Row | binding | Substance
1 | binds | inositol trisphosphate receptor type 1 (IP3R1) (from UniProt P11881 1-2749)
2 | binds | inositol trisphosphate receptor type 2 (IP3R2) (from UniProt Q9Z329 1-2701)
3 | binds | inositol trisphosphate receptor type 3 (IP3R3) (from UniProt P70227 1-2670)
